Where two headings read alike, the source gives them in different places. Results are given in words; binding and its absence hold for the method and conditions named. In cells and extracts the contact can be indirect. Some entries that bind do so weakly or less than the wild type.

Protein sequences, listed by entry. Tags and fused reporters are not part of them. Lines headed by an entry give the natural chain unless they say otherwise; changes in a name come on top.
UniProt Q9UQM7: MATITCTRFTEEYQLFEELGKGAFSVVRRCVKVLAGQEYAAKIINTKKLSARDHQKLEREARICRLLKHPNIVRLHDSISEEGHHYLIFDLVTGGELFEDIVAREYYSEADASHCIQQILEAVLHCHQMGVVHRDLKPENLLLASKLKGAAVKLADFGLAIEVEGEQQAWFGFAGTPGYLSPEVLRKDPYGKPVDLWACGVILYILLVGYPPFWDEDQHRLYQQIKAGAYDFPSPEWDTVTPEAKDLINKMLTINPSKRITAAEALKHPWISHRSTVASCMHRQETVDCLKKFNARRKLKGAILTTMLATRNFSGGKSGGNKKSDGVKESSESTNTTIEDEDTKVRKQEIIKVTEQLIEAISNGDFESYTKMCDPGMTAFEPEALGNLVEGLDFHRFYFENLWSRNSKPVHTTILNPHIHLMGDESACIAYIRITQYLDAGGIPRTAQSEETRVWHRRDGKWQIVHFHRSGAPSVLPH
UniProt Q9D0L8: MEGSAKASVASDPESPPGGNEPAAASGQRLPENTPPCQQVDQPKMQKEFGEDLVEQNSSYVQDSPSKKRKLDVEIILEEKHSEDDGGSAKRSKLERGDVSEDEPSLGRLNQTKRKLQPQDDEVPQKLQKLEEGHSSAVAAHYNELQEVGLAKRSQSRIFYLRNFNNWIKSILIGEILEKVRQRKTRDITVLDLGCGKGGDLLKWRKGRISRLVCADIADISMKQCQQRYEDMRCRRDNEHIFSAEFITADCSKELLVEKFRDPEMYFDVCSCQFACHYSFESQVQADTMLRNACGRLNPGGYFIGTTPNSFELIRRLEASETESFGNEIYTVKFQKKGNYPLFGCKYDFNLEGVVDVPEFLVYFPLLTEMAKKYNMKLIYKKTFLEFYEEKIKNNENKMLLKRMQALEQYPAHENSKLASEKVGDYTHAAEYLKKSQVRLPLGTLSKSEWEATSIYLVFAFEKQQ
UniProt O43148: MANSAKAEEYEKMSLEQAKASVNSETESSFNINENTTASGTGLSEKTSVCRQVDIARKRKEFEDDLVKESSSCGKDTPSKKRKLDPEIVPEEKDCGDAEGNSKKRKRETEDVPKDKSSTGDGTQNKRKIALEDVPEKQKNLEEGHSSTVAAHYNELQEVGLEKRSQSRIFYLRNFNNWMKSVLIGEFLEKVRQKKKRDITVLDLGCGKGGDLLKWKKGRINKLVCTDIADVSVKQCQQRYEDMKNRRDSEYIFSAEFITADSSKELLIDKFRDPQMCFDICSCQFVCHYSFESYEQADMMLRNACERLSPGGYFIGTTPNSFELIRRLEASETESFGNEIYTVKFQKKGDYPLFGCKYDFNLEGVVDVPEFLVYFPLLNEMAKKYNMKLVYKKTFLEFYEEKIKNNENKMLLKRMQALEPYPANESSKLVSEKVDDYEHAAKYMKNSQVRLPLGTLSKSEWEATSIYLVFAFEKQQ
UniProt Q9CQY2: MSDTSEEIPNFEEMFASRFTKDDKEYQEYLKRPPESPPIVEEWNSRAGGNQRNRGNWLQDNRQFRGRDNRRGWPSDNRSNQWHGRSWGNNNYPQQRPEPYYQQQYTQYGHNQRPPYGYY
UniProt P28652: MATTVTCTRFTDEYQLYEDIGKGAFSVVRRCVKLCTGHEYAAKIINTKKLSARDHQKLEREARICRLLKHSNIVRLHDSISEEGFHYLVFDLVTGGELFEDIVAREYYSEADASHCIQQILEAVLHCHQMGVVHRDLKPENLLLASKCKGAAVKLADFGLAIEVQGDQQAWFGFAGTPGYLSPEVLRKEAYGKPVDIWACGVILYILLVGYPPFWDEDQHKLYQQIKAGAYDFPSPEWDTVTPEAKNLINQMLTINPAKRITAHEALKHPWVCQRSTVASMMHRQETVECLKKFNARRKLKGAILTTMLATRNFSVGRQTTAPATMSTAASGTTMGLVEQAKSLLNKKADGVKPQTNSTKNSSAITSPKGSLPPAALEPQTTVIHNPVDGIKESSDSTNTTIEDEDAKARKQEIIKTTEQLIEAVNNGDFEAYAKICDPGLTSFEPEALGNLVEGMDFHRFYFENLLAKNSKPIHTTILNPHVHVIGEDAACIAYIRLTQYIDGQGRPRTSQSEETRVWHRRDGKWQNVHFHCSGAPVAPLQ

Holding throughout (assay): co-IP
In test [1] the target is GFP-CaMKIIα (UniProt Q9UQM7).
The target in test [2] is RNA cap guanine-7 methyltransferase, RNMT (endogenous, mouse) (mouse (endogenous in brain and primary neurons)) (UniProt Q9D0L8).
For test [3] the target is unchanged. This is another data set of the same source.
Test [4] deals with HA-RNMT catalytic domain (HA-RNMTcat, 121-476) (UniProt O43148).
Test [5] concerns the target HA-RNMT (full length) (UniProt O43148).

“HA-RNMT catalytic domain (HA-RNMTcat, 121-476) (from UniProt O43148 121-476) (domain or fragment)”: in test [1], the binding entry is “binds”. Take “RAM, RNMT activating subunit (endogenous, mouse) (from UniProt Q9CQY2 1-119)”: in test [2], the binding result was “binds”. With “Ca2+/calmodulin-dependent protein kinase II beta, CaMKIIβ (endogenous, mouse) (from UniProt P28652 1-542) (enzyme)”, the binding entry in test [2] and in test [3] was “binds” each time. Take “HA-RNMT (full length) (from UniProt O43148 1-476) (enzyme)”: the binding entry in test [1] is recorded as “binds”. Regarding “GFP-CaMKIIα (from UniProt Q9UQM7 1-478) (enzyme)”, the binding result in test [4] and in test [5] was “binds” in each case. Take “HA-RNMT N terminal regulatory region (HA-RNMT-N, 1-120) (from UniProt O43148 1-120) (domain or fragment)”: the binding entry in test [1] was “no binding”.
